Laboratory results taken from the supplement of paper PMC12595434, “Development of retinoid nuclear receptor pathway antagonists through targeting aldehyde dehydrogenase 1A3” (iScience, 2025).
Some of the results follow. The data scatter; read single values as rough.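 Many melting curves are irregular; where none melted, Tm was taken as 64 °C.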

By UniProt entry, the sequences of proteins in these tests, tags left out. Where a name states a change or a piece, a line headed by the entry shows the natural chain unless it says otherwise.
UniProt P07947, whole entry, looked up: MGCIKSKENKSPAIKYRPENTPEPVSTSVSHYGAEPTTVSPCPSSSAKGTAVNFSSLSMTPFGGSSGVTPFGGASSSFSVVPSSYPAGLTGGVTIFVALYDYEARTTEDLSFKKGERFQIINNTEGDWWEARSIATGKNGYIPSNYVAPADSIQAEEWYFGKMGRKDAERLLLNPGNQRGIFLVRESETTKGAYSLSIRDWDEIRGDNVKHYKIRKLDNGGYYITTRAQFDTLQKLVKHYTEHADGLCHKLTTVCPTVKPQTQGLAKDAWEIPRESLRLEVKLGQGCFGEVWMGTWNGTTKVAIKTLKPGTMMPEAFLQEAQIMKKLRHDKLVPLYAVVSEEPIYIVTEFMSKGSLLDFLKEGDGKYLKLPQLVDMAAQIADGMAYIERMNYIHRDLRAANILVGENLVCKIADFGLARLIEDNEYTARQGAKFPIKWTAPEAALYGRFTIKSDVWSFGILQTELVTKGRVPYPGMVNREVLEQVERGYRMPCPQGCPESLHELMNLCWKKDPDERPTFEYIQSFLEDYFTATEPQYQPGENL
UniProt P07437, whole entry: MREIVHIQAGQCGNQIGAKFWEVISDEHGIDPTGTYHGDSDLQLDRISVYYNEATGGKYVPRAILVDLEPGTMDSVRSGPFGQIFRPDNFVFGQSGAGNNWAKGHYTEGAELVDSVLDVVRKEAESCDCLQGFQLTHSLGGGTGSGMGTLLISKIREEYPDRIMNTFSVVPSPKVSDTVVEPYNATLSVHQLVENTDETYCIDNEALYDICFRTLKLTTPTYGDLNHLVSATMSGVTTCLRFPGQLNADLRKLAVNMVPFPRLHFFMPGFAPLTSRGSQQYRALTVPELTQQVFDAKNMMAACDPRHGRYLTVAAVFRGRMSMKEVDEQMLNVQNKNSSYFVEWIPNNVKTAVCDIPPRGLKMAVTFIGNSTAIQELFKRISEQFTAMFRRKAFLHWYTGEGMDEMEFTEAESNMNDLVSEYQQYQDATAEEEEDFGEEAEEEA
UniProt P11274: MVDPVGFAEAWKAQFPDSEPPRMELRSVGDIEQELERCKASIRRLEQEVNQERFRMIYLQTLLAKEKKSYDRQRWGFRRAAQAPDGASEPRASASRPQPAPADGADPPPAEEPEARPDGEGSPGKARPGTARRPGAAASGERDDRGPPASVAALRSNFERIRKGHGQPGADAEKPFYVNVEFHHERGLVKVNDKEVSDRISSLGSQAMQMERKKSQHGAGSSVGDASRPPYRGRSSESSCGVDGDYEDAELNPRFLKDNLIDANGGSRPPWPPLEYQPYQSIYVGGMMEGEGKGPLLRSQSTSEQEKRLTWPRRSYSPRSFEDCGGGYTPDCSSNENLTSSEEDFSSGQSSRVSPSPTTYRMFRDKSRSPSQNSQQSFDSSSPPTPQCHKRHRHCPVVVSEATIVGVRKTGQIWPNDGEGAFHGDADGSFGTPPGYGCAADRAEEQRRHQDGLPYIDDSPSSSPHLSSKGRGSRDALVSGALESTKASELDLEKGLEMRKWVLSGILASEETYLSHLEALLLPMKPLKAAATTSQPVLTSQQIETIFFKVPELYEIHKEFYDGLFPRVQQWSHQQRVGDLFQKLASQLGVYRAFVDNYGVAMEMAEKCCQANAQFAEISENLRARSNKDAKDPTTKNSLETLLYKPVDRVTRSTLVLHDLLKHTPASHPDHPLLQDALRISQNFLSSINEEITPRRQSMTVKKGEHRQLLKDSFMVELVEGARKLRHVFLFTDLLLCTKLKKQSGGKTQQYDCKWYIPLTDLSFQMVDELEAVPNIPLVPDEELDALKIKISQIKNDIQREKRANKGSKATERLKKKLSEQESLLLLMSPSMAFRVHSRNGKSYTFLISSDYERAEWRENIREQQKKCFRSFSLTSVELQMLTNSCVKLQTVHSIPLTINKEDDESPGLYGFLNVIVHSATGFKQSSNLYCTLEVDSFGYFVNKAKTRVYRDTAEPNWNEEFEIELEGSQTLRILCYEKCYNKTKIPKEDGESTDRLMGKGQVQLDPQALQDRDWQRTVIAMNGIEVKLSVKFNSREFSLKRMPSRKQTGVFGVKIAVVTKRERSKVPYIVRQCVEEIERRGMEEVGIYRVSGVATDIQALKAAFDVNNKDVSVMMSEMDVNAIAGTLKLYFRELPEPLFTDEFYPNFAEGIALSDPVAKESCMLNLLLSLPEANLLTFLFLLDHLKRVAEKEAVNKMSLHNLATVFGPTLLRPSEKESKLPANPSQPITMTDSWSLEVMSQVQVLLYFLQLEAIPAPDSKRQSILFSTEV
UniProt P14635, whole entry: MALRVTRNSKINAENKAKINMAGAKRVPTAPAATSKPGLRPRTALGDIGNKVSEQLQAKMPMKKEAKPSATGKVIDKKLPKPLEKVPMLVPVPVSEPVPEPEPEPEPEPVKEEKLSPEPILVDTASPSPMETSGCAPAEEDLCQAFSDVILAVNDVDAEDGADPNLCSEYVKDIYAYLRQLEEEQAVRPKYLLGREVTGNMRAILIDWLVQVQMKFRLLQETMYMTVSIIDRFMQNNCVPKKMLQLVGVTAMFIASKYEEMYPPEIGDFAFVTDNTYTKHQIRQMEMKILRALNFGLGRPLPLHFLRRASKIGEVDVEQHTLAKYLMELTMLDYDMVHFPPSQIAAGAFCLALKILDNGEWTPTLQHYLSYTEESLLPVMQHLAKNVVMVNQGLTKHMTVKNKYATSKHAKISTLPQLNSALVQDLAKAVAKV
UniProt P11233: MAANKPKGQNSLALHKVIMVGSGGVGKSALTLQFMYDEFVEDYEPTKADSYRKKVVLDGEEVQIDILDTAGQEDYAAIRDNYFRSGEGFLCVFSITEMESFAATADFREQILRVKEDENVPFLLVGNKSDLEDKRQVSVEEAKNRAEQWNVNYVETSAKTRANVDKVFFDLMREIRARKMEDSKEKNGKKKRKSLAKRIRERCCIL
UniProt P09914: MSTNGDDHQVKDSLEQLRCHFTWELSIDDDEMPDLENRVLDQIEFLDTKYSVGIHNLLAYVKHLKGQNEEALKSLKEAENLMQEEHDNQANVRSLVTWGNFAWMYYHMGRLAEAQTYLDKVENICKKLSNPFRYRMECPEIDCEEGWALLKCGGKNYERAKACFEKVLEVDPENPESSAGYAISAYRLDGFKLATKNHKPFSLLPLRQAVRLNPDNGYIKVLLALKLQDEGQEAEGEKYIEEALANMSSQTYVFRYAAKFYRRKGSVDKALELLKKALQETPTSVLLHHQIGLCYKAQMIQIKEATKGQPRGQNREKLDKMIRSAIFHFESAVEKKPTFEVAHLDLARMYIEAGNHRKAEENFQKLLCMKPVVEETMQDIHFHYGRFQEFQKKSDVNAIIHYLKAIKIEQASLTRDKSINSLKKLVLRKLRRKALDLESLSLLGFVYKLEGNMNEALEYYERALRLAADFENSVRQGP
UniProt P15927: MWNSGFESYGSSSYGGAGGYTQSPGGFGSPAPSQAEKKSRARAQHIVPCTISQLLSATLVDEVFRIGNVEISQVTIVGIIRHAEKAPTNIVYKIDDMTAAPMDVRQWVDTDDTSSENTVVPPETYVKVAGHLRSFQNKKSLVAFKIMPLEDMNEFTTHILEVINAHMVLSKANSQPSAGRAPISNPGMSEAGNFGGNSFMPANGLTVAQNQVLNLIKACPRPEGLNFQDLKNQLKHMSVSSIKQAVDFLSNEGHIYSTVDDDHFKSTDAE
UniProt P07339: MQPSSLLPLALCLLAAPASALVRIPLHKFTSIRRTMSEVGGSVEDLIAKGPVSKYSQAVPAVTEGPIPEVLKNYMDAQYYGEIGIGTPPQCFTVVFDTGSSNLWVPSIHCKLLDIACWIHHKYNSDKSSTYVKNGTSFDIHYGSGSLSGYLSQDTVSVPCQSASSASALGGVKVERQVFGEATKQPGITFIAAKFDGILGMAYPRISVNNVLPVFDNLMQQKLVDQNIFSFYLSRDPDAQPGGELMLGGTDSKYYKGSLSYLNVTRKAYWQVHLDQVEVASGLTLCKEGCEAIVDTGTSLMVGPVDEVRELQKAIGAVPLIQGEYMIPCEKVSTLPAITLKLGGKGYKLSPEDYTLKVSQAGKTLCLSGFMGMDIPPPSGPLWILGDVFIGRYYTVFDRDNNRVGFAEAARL
UniProt P13984, whole entry: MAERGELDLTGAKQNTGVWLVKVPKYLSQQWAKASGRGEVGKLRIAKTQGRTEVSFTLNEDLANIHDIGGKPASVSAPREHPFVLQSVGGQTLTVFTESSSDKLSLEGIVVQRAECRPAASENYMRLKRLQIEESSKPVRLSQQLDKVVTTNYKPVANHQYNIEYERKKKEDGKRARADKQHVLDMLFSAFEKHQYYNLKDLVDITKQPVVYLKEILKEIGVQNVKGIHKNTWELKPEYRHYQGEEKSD
UniProt P17931, whole entry: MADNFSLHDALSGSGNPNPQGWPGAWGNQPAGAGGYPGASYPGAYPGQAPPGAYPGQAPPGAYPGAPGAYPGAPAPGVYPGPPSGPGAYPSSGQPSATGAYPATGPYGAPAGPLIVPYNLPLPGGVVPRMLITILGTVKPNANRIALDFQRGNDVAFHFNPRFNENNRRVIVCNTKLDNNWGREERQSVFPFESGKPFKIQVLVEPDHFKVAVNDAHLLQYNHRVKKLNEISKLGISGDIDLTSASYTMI
UniProt P16989, whole entry: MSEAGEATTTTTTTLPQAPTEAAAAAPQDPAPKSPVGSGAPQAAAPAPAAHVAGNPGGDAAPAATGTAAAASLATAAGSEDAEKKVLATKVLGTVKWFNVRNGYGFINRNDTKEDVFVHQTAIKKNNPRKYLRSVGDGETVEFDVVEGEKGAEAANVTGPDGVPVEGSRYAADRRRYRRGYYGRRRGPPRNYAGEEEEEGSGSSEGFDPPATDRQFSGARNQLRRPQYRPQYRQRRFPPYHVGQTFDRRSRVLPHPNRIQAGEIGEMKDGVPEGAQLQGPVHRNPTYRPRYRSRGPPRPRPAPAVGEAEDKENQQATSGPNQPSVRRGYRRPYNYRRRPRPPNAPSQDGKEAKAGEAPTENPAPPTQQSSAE
UniProt P09651: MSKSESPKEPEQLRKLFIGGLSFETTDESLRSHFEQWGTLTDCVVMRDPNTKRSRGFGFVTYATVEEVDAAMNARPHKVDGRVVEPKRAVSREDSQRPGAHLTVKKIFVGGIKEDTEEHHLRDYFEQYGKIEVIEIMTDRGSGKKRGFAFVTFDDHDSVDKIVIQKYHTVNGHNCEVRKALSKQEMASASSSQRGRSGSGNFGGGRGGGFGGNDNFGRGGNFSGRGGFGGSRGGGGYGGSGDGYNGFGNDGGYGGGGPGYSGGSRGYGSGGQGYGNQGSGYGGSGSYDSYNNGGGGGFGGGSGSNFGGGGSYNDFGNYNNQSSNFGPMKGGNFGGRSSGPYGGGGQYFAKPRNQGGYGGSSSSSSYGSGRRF
UniProt P20337: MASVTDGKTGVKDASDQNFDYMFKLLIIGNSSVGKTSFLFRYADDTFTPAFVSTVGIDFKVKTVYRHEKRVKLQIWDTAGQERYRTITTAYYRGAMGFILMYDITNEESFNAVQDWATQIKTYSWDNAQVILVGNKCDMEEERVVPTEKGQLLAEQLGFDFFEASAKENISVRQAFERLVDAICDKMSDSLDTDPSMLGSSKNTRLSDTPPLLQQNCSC
UniProt P10768: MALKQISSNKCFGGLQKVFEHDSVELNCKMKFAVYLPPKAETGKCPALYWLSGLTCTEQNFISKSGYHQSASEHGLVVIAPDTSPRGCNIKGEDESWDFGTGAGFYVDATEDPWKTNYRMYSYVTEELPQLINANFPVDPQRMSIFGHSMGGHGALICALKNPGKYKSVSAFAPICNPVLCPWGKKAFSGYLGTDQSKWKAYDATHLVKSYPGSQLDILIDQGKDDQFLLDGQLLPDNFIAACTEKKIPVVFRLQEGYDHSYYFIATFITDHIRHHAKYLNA
UniProt P07741: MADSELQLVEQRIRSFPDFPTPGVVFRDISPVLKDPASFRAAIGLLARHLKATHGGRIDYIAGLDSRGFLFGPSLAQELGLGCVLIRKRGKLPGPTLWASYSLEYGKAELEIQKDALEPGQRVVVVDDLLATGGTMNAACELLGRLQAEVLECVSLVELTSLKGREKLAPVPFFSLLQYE
UniProt P15336: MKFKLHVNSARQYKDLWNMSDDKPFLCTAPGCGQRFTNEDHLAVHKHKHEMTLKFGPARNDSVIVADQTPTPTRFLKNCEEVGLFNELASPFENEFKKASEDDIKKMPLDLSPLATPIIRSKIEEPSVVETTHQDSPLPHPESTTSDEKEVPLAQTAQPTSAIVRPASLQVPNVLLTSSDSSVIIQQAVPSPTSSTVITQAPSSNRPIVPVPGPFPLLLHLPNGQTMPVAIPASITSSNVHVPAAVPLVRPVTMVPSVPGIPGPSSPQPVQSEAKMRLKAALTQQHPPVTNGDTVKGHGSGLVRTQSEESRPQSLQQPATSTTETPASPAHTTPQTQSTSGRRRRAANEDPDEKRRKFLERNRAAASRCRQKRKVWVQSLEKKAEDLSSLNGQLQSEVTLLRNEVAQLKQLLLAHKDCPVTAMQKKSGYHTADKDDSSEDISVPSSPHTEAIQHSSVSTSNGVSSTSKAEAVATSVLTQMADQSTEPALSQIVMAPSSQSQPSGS

Compound: CCc1cnccc1C(=O)Nc1cc2c(cc1F)NC(=O)CC2
Assay: melting temperature shift (DMSO Tm minus MBE1-treated Tm) in cellular thermal proteome profiling; higher = less thermal stabilization by MBE1 (negative = stabilized by MBE1)
Settings: A375

Target | melting temperature shift (MBE1 concentration: 100 nM) [°C] | melting temperature shift (MBE1 concentration: 1 uM) [°C]
UniProt P07947 | 1.04 | 1.1
TUBB (UniProt P07437) | -1.32 | 0.8
BCR (UniProt P11274) | 0.861 | 0.238
CCNB1 (UniProt P14635) | -1.7 | 0.429
UniProt P0DMP2 | 1.43 | 3.32
RALA (UniProt P11233) | -2.89 | -2.37
IFIT1 (UniProt P09914) | -0.434 | -0.44
RPA2 (UniProt P15927) | -2.76 | 0.794
EZR (UniProt P15311) | -0.248 | -0.116
CTSD (UniProt P07339) | -1.71 | -0.383
GTF2F2 (UniProt P13984) | -0.275 | 0.496
UniProt P17252 | -0.0855 | -0.00611
LGALS3 (UniProt P17931) | 0.255 | -0.288
YBX3 (UniProt P16989) | -2.24 | -0.858
UniProt P16144 | -0.885 | 0.852
HNRNPA1 (UniProt P09651) | -0.208 | -0.202
UniProt P20337 | -1.74 | -1.02
UniProt P18583 | -0.846 | -0.519
ESD (UniProt P10768) | -0.318 | -0.16
APRT (UniProt P07741) | -1.04 | -0.666
UniProt P15336 | -1.47 | 1.25

Whole records from above. Values in the order: melting temperature shift (MBE1 concentration: 100 nM) [°C]	melting temperature shift (MBE1 concentration: 1 uM) [°C]
HNRNPA1 (UniProt P09651) reads -0.208	-0.202
LGALS3 (UniProt P17931) reads 0.255	-0.288
